# PubChem BioAssay (EPA / NIEHS)
# Inconclusive results, whose numbers are uncertain, are shown with a selection of clear calls. For some assays here: Potencies of inconclusive entries are doubtful fits and often do not repeat. Active and inactive are the calls of the source. How the source made its calls: active means hit-call score of the fitted dose curve at least 0.9, where 1 is the maximum; inconclusive means response in the unintended direction; inactive means score below 0.9.
# Key:
# [1] = CCTE_Mundy_HCI_iCellGluta_NOG_NeuriteLength: CCTE's Neurite Outgrowth Assay in iCellGluta cells for Neurite Length, Mundy Lab (AID 2284318)
# Outline: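 Automated high-content imaging of betaIII-tubulin (Alexa Fluor-488) and Hoechst-stained cells gave neurite length, normalized to the DMSO baseline.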
# [2] = CCTE_Mundy_HCI_Cortical_NOG_NeuronCount: CCTE's Neurite Outgrowth Assay in rat cortical cells for Neuron Count, Mundy Lab (AID 2284236);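 further: neurons counted by imaging betaIII-tubulin and Hoechst stained cortical cells; cells exposed to compound for about 48 hours before fixation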
# Outline: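 Read-out: neuron number by high-content imaging of betaIII-tubulin (Alexa Fluor-488) and Hoechst-labelled rat primary cortical cells.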
# [3] = CCTE_Mundy_HCI_Cortical_Synap_Neur_Matur_NeuronCount: CCTE's Synaptogenesis and Neurite Maturation Assay in rat cortical cells for Neuron Count, Mundy Lab (AID 2284242);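 on AC50: neuron number from Hoechst nuclei and MAP2 staining by high-content imaging; hits reduce neuron count versus DMSO baseline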
# Outline: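 Imaging-based neuron count in rat cortical cultures after chemical exposure from DIV 7 to DIV 12, with AraC added at DIV 5. Activity is fitted relative to DMSO.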
# [4] = CCTE_Mundy_HCI_hNP1_CellTiter: CCTE's Cell Titer-Glo 2 Assay in human neuroprogenitor cells for Viability, Mundy Lab (AID 2284241);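 on AC50: a hit is a drop in ATP luminescence versus DMSO meaning reduced viability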
# Outline: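 Human neural progenitor cells (hNP1, WA09-derived) were plated on poly-L-ornithine/laminin and grown 40 to 44 hours at 37 °C, 5% CO2 before chemical addition. Twenty-four hours later, ATP was measured by CellTiter-Glo luminescence; loss of signal versus DMSO indicates reduced viability.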
# [5] = VALA_TUBHUV_Antagonist_CellCount: Viability Assessment in the VALA Sciences human Umbilical Vein Endothelial Tubule Formation (TUBHUV) Antagonism Assay (AID 2284310)
# Outline: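 HUVEC co-cultured with HDF (1:3) 3 days in 10 ng/ml VEGF, then 3 days with compounds in VEGF medium. Fixed, nuclear stain and CD31 immunofluorescence, imaged; cell counts fitted versus 0.1% DMSO, loss of signal read as lower viability.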
# [6] = VALA_TUBIPS_Antagonist_TubuleLength: VALA Sciences human iPS-derived Endothelial Tubule Formation (TUBIPS) Antagonist Assay (AID 2284313)
# Outline: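 Cells grown 3 days with 10 ng/ml VEGF, then exposed to compounds in VEGF medium for another 3 days. After fixation, nuclear stain and CD31 immunofluorescence imaging gave mean total tubule length against 0.1% DMSO; suramin (100 uM) inhibition control.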
# [7] = VALA_MIGHUV2_CellCount: Viability Assessment in the VALA Sciences human Umbilical Vein Endothelial Cell Migration (MIGHUV) Assay, Area of Scratch Wound after Recovery (AID 2284314)
# Outline: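 Scratch-wounded HUVEC monolayers received test chemical within 30 min, 6-point concentration response in triplicate, 0.1 % DMSO vehicle. After 24 h wound recovery, fixed cells were Hoechst-stained and nuclei imaged; loss of signal versus DMSO indicates reduced viability.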
# [8] = VALA_MIGHUV2_Bcatenin: VALA Sciences human Umbilical Vein Endothelial Cell Migration (MIGHUV) Assay, Nuclear Translocation of beta-Catenin after Recovery (AID 2284315)
# Outline: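 HUVEC (4000 cells/well) scratch-wounded, dosed within 30 min over 6 concentrations in triplicate, recovered 24 h. After fixation, Hoechst and anti-beta-catenin immunofluorescence imaged for nuclear CTNB. Gain of signal versus 0.1% DMSO.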
# [9] = VALA_MIGHUV2_WoundArea: VALA Sciences human Umbilical Vein Endothelial Cell Migration (MIGHUV) Assay, Area of Scratch Wound after Recovery (AID 2284316)
# Outline: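 HUVEC seeded at 9000 cells/well, scratched after 24 h; test chemical added within 30 min, 6-point concentration response in triplicate (0.1% DMSO vehicle). After 24 h wound recovery, cells fixed and Hoechst-stained nuclei in wound area imaged; Cytochalasin D reference control.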
# [10] = VALA_TUBHUV_Antagonist_TubuleLength: VALA Sciences human Umbilical Vein Endothelial Tubule Formation (TUBHUV) Antagonism Assay (AID 2284325)
# Outline: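 HUVEC–HDF co-culture (1:3) pre-grown 3 days with 10 ng/ml VEGF, then 3 days with compound plus VEGF. Fixed, nuclear and CD31 stained; total tubule length by imaging versus 0.1% DMSO; suramin 100 uM positive control.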
# [11] = VALA_MIGHUV1_ScratchOnly_CellCount: Viability Assessment in the VALA Sciences human Umbilical Vein Endothelial Cell Migration (MIGHUV) Assay, Scratch Wound Inhibited Recovery (AID 2284327)
# Outline: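 HUVEC scratched after 24 h culture, chemical added within 30 min at 6 concentrations in triplicate (0.1% DMSO vehicle). After 24 h recovery, fixed cells were counted by Hoechst nuclear imaging in the wound area.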
# [12] = IUF_NPC4_neurite_area_120hr: Leibniz Research Institute for Environmental Medicine (IUF) 120-hour Neuronal Morphology Assay for Neurite Area (NPC4) (AID 2284305)
# Outline: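 Neurite area is read out as the mean pixel area, excluding nuclei, of skeletonized TUBB3-positive neurons imaged after 120 h. Primary human neural progenitor spheres differentiated on poly-D-lysine/laminin with compound present from day 0. Activity was referenced to DMSO controls.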
# [13] = VALA_TUBHUV_Agonist_CellCount: Viability Assessment in the VALA Sciences human Umbilical Vein Endothelial Tubule Formation (TUBHUV) Agonism Assay (AID 2284309)
# Outline: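 HUVEC co-cultured 1:3 with HDF for 3 days in 10 ng/ml VEGF, then compounds added in VEGF medium for a further 3 days (72 h). Nuclear-stain/CD31 imaging cell count. Positive-direction fit versus 0.1% DMSO vehicle.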
# [14] = VALA_TUBIPS_Agonist_TubuleLength: VALA Sciences human iPS-derived Endothelial Tubule Formation (TUBIPS) Agonism Assay (AID 2284311)
# Outline: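 Human iPS-derived endothelial cells were exposed to compound for 72 h. Tubule formation was imaged by high-content fluorescence and scored as gain of signal relative to DMSO vehicle (agonist mode).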
compound,measurement,setting,value
O=C(O)C(F)(F)C(F)(F)C(F)(F)C(F)(F)C(=O)O,AC50,[1],inconclusive: 0.000911 µM
N[C@H]1C(O)O[C@H](CO)[C@H](O)[C@@H]1O (some centres undefined),AC50,[2],inconclusive: 0.000567 µM
same,AC50,[3],inconclusive: 0.017 µM
NC(=O)C(F)(F)C(F)(F)C(F)(F)C(F)(F)C(N)=O,AC50,[4],inconclusive: 15 µM
CCCN(CCC)C(=O)SCC,AC50,[3],inconclusive: 0.0302 µM
Cn1cc[nH]c1=S,AC50,[3],inconclusive: 0.000665 µM
same,outcome,[5],inactive
same,AC50,[6],inconclusive: 0.00965 µM
same,outcome,[7],inactive
same,AC50,[8],inconclusive: 7.64 µM
same,outcome,[9],inactive
same,AC50,[10],inconclusive: 0.00772 µM
same,outcome,[11],inactive
CC(C)c1c(C(=O)Nc2ccccc2)c(-c2ccccc2)c(-c2ccc(F)cc2)n1CC[C@@H](O)C[C@@H](O)CC(=O)O,AC50,[2],active: 7.8 µM
same,AC50,[3],active: 5.15 µM
COCCOCCOCCO,AC50,[3],inconclusive: 0.279 µM
same,outcome,[12],inactive
same,outcome,[1],inactive
Cc1c(C(=O)c2c[nH]n(C)c2=O)ccc(S(C)(=O)=O)c1C1=NOCC1,AC50,[2],inconclusive: 0.000429 µM
same,AC50,[3],inconclusive: 0.00206 µM
same,outcome,[12],inactive
O=C1OC(c2ccc(O)cc2)(c2ccc(O)cc2)c2ccccc21,outcome,[13],inactive
same,outcome,[5],inactive
same,outcome,[14],inactive
same,AC50,[6],inconclusive: 7.4 µM
same,AC50,[7],inconclusive: 0.00133 µM
same,outcome,[8],inactive
same,outcome,[9],inactive
same,AC50,[10],active: 50 µM
same,AC50,[11],inconclusive: 0.0054 µM
C=CC(=O)OCC(F)(F)C(F)(F)C(F)(F)COC(=O)C=C,AC50,[1],inconclusive: 0.00047 µM
O=P(O)(O)OCCC(F)(F)C(F)(F)C(F)(F)C(F)(F)C(F)(F)C(F)(F)F,outcome,[4],inactive
Oc1cccc2ccccc12,outcome,[12],inactive
O=C1NC(=O)C(c2ccccc2)(c2ccccc2)N1,AC50,[2],inconclusive: 0.00187 µM
same,outcome,[3],inactive
CCCCCCCCCCCCc1ccccc1S(=O)(=O)O,AC50,[14],inconclusive: 10 µM
same,AC50,[7],inconclusive: 0.000258 µM
same,AC50,[8],inconclusive: 0.00165 µM
same,outcome,[9],inactive
same,AC50,[10],inconclusive: 1.5 µM
same,AC50,[11],inconclusive: 0.00677 µM
Nc1nc(Cl)nc2c1ncn2[C@H]1C[C@H](O)[C@@H](CO)O1,AC50,[13],active: 1.56 µM
same,outcome,[5],inactive
same,AC50,[14],inconclusive: 50 µM
same,AC50,[6],active: 1.78 µM
same,AC50,[7],active: 2.48 µM
same,outcome,[8],inactive
same,AC50,[9],active: 28.9 µM
same,AC50,[10],active: 0.703 µM
same,AC50,[11],inconclusive: 0.0174 µM
FC(F)(F)C(F)(F)C(F)(F)C(F)(F)C(F)(F)C(F)(F)C(F)(F)C(F)(F)CCS,outcome,[4],inactive
Oc1ccccc1,AC50,[2],inconclusive: 0.000335 µM
same,AC50,[3],inconclusive: 0.0144 µM
CCCCC(CC)COC(=O)CC(C(=O)OCC(CC)CCCC)S(=O)(=O)O (centres undefined),AC50,[13],active: 7.22 µM
same,AC50,[5],inconclusive: 7.96 µM
same,outcome,[14],inactive
same,AC50,[7],active: 50 µM
same,AC50,[8],inconclusive: 50 µM
same,outcome,[9],inactive
same,AC50,[10],active: 73 µM
same,AC50,[11],active: 78.2 µM
CN(C)CCCN1c2ccccc2Sc2ccc(Cl)cc21,AC50,[3],active: 13.7 µM
CCCCC(CC)COP(=O)(OCC(CC)CCCC)OCC(CC)CCCC (centres undefined),AC50,[14],inconclusive: 0.000258 µM
same,AC50,[6],inconclusive: 10 µM
same,outcome,[7],inactive
same,AC50,[8],inconclusive: 0.0131 µM
same,AC50,[9],inconclusive: 0.0183 µM
same,AC50,[10],active: 10 µM
same,AC50,[11],inconclusive: 0.000964 µM
NC(=O)C(F)(F)C(F)(F)C(F)(F)C(F)(F)C(F)(F)C(F)(F)C(F)(F)F,outcome,[4],inactive
O=C(O)C(F)(F)C(F)(F)C(F)(F)OC(F)(C(F)(F)F)C(F)(F)F,AC50,[1],inconclusive: 0.0001 µM
COCCc1ccc(OCC(O)CNC(C)C)cc1 (centres undefined),AC50,[3],inconclusive: 0.00196 µM
same,outcome,[1],inactive
O=C(O)C(F)(F)C(F)(F)C(F)(F)OC(F)(F)F,outcome,[4],inactive

# Exported bar-delimited: part of the list above.
compound | measurement | setting | value
Cn1cc[nH]c1=S | outcome | [7] | inactive
O=C1OC(c2ccc(O)cc2)(c2ccc(O)cc2)c2ccccc21 | outcome | [5] | inactive
FC(F)(F)C(F)(F)C(F)(F)C(F)(F)C(F)(F)C(F)(F)C(F)(F)C(F)(F)CCS | outcome | [4] | inactive
Oc1ccccc1 | AC50 | [3] | inconclusive: 0.0144 µM
CCCCC(CC)COP(=O)(OCC(CC)CCCC)OCC(CC)CCCC (centres undefined) | AC50 | [14] | inconclusive: 0.000258 µM
